In patent US20140194500A1 (Kookmin University Industry Academic Cooperation Foundation, priority 2013, published 2014):
For at least one compound, name, drawing or mass did not settle the structure.

Protein sequences, listed by entry. Tags and fused reporters are not part of them. Residues count along the entry.
UniProt P27958, 1193-1657: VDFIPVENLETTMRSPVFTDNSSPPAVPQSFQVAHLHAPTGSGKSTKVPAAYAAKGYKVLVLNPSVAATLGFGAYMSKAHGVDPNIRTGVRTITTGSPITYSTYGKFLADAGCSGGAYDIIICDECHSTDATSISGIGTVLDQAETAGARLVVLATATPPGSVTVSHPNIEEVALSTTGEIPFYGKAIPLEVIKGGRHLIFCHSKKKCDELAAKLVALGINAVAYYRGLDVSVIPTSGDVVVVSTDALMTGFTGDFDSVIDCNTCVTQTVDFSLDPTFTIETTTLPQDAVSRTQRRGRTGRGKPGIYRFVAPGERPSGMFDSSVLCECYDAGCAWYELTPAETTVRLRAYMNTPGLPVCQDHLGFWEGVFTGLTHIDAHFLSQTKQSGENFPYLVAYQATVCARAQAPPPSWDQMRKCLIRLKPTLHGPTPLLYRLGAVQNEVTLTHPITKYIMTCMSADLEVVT

Columns and labels:
Assay type in all cases: biochemical
HCV viral helicase, NS3h = HCV viral helicase, NS3h (Hepatitis C virus genotype 1a, UniProt P27958)
[1] = biological target: SARS coronavirus helicase nsP13 (Severe acute respiratory syndrome coronavirus, UniProt P0C6X7)
HCV NS3h = HCV NS3h (Hepatitis C virus genotype 1a, UniProt P27958)

O=c1cc(-c2ccc(O)cc2)oc2cc(O)c(O)c(O)c12 [No. 8, scutellarein]
inhibition of the DNA unwinding activity of HCV viral helicase (HCV viral helicase, NS3h): did not suppress the helicase activity of HCV virus
inhibition of the dsDNA-unwinding activity of SARS helicase, nsP13 [1]: not inhibition of helicase activity
suppression of the ATPase activity of the HCV viral helicase (HCV NS3h): did not seem to suppress the ATPase activity of HCV helicase protein
